These are yes or no findings as the source states them, for the method shown.
Assays:
[1] = target: rat IL-31RA (rat); experiment: Biacore T100 (SPR)
[2] = target: rabbit IL-31RA (rabbit); experiment: Biacore T100 (SPR)

binding [1]: no binding
binding [2]: no binding
B1: CIM331 (antibody, IgG2, V domains shown)
VH: QVQLVQSGAEVKKPGASVKVSCKASGYTFTGYIMNWVRQAPGQGLEWMGLINPYNGGTDYNPQFQDRVTITADKSTSTAYMELSSLRSEDTAVYYCARDGYDDGPYTLETWGQGTLVTVSS
VL: DIQMTQSPSSLSASVGDRVTITCQASEDIYSFVAWYQQKPGKAPKLLIYNAQTEAQGVPSRFSGSGSGTDFTLTISSLQPEDFATYYCQHHYDSPLTFGGGTKVEIKR

Source: US20240018249A1
